Reference: paper PMC9266683
Results are given in words; binding and its absence hold for the method and conditions named. Binding seen in cells or lysates may run through a third protein. Some binding calls cover weakened binding; strength is not graded here. Where a sequence is shown, tags or fusion partners need not be part of it.

Protein sequences, listed by entry. Tags and fused reporters are not part of them. Lines headed by an entry give the natural chain unless they say otherwise; changes in a name come on top. Chains listed by the source or under a name are the forms on record and can include a tag or linker. Residues count along the entry.
UniProt O04539: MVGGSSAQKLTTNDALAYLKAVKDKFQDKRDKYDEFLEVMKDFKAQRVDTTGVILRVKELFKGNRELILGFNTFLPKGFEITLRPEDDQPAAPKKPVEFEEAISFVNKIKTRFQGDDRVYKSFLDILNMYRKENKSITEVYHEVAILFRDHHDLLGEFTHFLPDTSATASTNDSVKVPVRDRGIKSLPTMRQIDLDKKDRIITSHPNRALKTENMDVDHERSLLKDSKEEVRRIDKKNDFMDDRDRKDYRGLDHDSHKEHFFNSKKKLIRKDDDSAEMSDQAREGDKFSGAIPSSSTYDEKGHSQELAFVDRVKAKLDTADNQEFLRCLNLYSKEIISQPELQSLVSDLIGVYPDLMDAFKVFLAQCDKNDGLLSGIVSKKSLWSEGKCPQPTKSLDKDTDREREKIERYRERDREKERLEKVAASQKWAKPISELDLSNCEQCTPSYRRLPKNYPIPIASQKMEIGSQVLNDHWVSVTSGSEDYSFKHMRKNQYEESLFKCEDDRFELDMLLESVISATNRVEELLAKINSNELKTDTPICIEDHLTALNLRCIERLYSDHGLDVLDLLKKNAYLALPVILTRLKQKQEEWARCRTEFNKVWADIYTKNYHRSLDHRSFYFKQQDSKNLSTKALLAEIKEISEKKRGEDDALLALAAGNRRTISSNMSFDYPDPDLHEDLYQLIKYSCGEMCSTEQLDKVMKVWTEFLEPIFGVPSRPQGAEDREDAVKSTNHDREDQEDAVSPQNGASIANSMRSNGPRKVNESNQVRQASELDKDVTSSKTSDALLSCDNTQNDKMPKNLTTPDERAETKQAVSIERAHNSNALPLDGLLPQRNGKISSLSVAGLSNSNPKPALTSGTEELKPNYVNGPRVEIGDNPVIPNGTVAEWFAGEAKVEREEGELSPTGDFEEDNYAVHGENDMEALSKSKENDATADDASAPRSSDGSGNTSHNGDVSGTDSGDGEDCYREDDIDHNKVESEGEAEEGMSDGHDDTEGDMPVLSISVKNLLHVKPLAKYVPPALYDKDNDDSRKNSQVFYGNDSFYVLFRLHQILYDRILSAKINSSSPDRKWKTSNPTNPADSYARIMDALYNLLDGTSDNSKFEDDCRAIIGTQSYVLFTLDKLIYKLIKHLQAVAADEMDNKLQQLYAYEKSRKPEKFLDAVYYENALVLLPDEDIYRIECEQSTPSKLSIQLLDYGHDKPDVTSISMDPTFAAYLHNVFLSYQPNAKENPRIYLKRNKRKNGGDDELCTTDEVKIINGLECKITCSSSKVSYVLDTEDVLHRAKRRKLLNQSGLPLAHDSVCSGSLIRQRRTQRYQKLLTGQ
SNL4-PAH (aa 1–420), fused to the C-terminal half of luciferase (cLUC): residues 1-420 of O04539
UniProt Q9XIE1, residues 1-250: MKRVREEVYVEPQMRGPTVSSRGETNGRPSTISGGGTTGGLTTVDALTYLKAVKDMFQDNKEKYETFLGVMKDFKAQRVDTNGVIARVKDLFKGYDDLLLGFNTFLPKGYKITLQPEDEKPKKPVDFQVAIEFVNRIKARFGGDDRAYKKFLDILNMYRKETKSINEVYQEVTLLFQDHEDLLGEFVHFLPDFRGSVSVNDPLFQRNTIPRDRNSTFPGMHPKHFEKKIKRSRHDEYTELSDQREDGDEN

T1: SNL1, intact, fused to the C-terminal half of luciferase (cLUC) (Arabidopsis thaliana) (UniProt Q9SRH9)
T1 sequence: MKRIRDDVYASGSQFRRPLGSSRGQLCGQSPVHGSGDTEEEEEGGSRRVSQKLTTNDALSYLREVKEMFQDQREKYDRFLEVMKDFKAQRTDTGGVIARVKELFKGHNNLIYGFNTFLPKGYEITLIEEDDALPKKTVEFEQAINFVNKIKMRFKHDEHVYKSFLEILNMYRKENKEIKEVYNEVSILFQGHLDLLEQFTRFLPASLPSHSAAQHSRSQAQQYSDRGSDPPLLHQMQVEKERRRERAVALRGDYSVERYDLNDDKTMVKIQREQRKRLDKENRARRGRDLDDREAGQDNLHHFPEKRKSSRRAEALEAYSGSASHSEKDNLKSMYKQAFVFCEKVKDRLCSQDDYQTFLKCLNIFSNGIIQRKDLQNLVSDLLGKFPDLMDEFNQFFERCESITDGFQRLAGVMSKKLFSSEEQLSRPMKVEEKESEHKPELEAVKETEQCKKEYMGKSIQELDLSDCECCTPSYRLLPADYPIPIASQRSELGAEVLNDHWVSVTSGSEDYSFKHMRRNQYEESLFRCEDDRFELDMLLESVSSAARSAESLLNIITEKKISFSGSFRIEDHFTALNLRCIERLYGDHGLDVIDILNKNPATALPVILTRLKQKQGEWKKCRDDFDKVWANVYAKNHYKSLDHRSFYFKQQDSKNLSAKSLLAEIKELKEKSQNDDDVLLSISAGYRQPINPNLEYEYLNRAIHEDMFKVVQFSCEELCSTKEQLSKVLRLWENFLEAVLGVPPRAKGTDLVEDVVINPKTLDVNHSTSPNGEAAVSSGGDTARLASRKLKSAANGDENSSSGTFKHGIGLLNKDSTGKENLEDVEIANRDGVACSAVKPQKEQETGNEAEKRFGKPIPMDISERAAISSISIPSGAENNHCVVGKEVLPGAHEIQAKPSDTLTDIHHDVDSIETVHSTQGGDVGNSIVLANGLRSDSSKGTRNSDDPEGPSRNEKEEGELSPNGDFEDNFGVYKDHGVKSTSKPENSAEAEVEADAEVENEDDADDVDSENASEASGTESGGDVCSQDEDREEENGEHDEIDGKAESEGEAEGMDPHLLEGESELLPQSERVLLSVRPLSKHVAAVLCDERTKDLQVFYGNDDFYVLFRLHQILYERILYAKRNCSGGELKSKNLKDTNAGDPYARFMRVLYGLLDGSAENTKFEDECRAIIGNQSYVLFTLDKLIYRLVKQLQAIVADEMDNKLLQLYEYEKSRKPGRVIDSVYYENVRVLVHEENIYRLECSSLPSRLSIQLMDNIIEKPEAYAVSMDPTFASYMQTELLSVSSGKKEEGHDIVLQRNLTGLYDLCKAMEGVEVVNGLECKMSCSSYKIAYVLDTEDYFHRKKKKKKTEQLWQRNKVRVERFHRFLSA

T2: SNL2-PAH (aa 1–430), fused to the C-terminal half of luciferase (cLUC) (Arabidopsis thaliana) (UniProt Q9LFQ3)
T2 sequence: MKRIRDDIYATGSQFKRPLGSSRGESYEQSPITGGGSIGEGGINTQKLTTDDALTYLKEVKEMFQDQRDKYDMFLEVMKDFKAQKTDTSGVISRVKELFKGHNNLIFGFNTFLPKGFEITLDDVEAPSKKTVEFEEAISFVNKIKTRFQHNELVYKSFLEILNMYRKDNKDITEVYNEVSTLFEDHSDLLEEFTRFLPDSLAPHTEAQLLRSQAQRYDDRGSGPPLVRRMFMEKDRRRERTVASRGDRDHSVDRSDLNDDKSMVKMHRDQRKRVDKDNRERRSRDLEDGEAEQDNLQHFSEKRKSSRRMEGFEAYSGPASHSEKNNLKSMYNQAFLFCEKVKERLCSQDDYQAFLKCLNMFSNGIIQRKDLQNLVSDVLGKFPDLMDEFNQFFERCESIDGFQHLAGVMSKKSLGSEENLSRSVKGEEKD

T3: SNL6-PAH (aa 1–300), fused to the C-terminal half of luciferase (cLUC) (Arabidopsis thaliana) (UniProt Q9XIK6)
T3 sequence: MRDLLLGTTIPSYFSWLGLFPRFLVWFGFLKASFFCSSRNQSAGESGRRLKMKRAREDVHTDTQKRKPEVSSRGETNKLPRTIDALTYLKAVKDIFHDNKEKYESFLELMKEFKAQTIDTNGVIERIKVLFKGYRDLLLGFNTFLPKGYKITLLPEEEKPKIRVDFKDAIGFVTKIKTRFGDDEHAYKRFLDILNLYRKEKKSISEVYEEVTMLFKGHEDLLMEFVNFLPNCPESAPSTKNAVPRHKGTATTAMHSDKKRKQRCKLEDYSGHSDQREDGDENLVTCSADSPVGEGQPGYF


Legend:
Assay in all cases: split reporter; firefly luciferase complementation imaging (LCI); VAL1 constructs fused to nLUC, SNL constructs to cLUC; co-infiltrated into N. benthamiana leaves, 22 °C for 48 h, imaged with a CCD
[1] = target: T1, SNL1, intact, fused to the C-terminal half of luciferase (cLUC) (Arabidopsis thaliana)
[2] = target: T2, SNL2-PAH (aa 1–430), fused to the C-terminal half of luciferase (cLUC) (Arabidopsis thaliana)
[3] = target: SNL4, intact, fused to the C-terminal half of luciferase (cLUC) (Arabidopsis thaliana) (UniProt O04539)
[4] = target: SNL4-PAH (aa 1–420), fused to the C-terminal half of luciferase (cLUC) (Arabidopsis thaliana) (UniProt O04539)
[5] = target: SNL5-PAH (aa 1–250), fused to the C-terminal half of luciferase (cLUC) (Arabidopsis thaliana) (UniProt Q9XIE1)
[6] = target: SNL6, intact, fused to the C-terminal half of luciferase (cLUC) (Arabidopsis thaliana) (UniProt Q9XIK6)
[7] = target: T3, SNL6-PAH (aa 1–300), fused to the C-terminal half of luciferase (cLUC) (Arabidopsis thaliana)

Row | binding [1] | binding [2] | binding [3] | binding [4] | binding [5] | binding [6] | binding [7] | Binder
1 | binds | binds | binds | binds | binds | binds | binds | VAL1-CW (aa 458–673), fused to the N-terminal half of luciferase (nLUC) (domain or fragment, UniProt Q8W4L5 458-673) DDPTRVKEKKRTRTIGAKNKRLLLHSEESMELRLTWEEAQDLLRPSPSVKPTIVVIEEQEIEEYDEPPVFGKRTIVTTKPSGEQERWATCDDCSKWRRLPVDALLSFKWTCIDNVWDVSRCSCSAPEESLKELENVLKVGREHKKRRTGESQAAKSQQEPCGLDALASAAVLGDTIGEPEVATTTRHPRHRAGCSCIVCIQPPSGKGRHKPTCGCT
2 | binds | binds | binds | binds | binds | binds | binds | VAL1, intact, fused to the N-terminal half of luciferase (nLUC) (protein, UniProt Q8W4L5 1-790) MFEVKMGSKMCMNASCGTTSTVEWKKGWPLRSGLLADLCYRCGSAYESSLFCEQFHKDQSGWRECYLCSKRLHCGCIASKVTIELMDYGGVGCSTCACCHQLNLNTRGENPGVFSRLPMKTLADRQHVNGESGGRNEGDLFSQPLVMGGDKREEFMPHRGFGKLMSPESTTTGHRLDAAGEMHESSPLQPSLNMGLAVNPFSPSFATEAVEGMKHISPSQSNMVHCSASNILQKPSRPAISTPPVASKSAQARIGRPPVEGRGRGHLLPRYWPKYTDKEVQQISGNLNLNIVPLFEKTLSASDAGRIGRLVLPKACAEAYFPPISQSEGIPLKIQDVRGREWTFQFRYWPNNNSRMYVLEGVTPCIQSMMLQAGDTVTFSRVDPGGKLIMGSRKAANAGDMQGCGLTNGTSTEDTSSSGVTENPPSINGSSCISLIPKELNGMPENLNSETNGGRIGDDPTRVKEKKRTRTIGAKNKRLLLHSEESMELRLTWEEAQDLLRPSPSVKPTIVVIEEQEIEEYDEPPVFGKRTIVTTKPSGEQERWATCDDCSKWRRLPVDALLSFKWTCIDNVWDVSRCSCSAPEESLKELENVLKVGREHKKRRTGESQAAKSQQEPCGLDALASAAVLGDTIGEPEVATTTRHPRHRAGCSCIVCIQPPSGKGRHKPTCGCTVCSTVKRRFKTLMMRRKKKQLERDVTAAEDKKKKDMELAESDKSKEEKEVNTARIDLNSDPYNKEDVEAVAVEKEESRKRAIGQCSGVVAQDASDVLGVTELEGEGKNVREEPRVSS
